Results are given in words; binding and its absence hold for the method and conditions named. In cells and extracts the contact can be indirect. Some binding calls cover weakened binding; strength is not graded here.

Chains of the proteins cited; added tags and fusions are not shown. Lines headed by an entry give the natural chain unless they say otherwise; changes in a name come on top. A line that says so, or that is headed by a name, gives the form on record, which may keep a tag or linker.
UniProt Q9Y6I9: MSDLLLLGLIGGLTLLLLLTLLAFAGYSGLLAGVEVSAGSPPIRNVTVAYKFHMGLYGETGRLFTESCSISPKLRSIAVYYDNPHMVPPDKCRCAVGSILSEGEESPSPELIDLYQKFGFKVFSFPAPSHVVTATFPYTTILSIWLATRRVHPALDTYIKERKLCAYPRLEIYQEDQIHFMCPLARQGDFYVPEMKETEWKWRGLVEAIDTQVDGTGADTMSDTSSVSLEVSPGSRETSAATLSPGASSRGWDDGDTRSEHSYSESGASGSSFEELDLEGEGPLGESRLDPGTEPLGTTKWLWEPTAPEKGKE
TEX264-FLAG core LIR mutant (LIR4A, FEEL/AAAA) (Q9Y6I9, form named): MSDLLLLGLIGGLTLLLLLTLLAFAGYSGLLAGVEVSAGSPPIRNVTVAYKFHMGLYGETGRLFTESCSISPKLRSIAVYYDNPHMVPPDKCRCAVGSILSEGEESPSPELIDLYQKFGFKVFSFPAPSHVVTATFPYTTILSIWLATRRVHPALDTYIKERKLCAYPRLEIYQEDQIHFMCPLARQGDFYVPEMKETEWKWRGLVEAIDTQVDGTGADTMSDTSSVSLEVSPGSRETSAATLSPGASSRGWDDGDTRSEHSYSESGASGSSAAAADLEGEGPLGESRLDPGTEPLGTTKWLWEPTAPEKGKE
UniProt O95166: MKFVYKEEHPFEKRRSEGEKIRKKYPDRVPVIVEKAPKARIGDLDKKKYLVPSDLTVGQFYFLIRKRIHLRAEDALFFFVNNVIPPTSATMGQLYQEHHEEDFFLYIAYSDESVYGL

Holding throughout (experiment): co-IP
Assay [1] concerns the target TEX264^S271A-FLAG (human) (UniProt Q9Y6I9).
The target in assay [2] is TEX264^S272A-FLAG (human) (UniProt Q9Y6I9).
The target of assay [3] is TEX264^(S269E, S271E, S272E)-FLAG (human) (UniProt Q9Y6I9).
Assay [4] concerns the target FLAG-tagged TEX264 (TEX264-FLAG), wild type (human) (UniProt Q9Y6I9).
In assay [5] the target is TEX264^(S269D, S271D, S272D)-FLAG (human) (UniProt Q9Y6I9).
Assay [6] addresses TEX264^S266A-FLAG (human) (UniProt Q9Y6I9).
The target in assay [7] is TEX264-FLAG core LIR mutant (LIR4A, FEEL/AAAA) (human) (UniProt Q9Y6I9).
The target in assay [8] is TEX264^S269A-FLAG (human) (UniProt Q9Y6I9).
Another assay addresses FLAG-GABARAP, wild type (UniProt O95166).

As for “GABARAP (in HEK293T lysate) (from UniProt O95166 1-117)”, the binding result is listed as “no binding” in assay [1]; “no binding” in [2]; “binds” in [3]; “binds” in [4]; “binds” in assay [5]; “binds” in assay [6]. Also, the binding entry is listed as “no binding” in assay [7] and “binds weakly” in assay [8].

Turning to “LC3A (in HEK293T lysate) (from UniProt Q9H492 1-121)”, the binding result in assay [3], in assay [4] and in assay [5] was “binds” in each case.

As for “TEX264 co-precipitated with FLAG-GABARAP (HEK293T lysate) (from UniProt Q9Y6I9 1-313)”, in the assay with FLAG-GABARAP, wild type, the binding result is reported as “binds”.

Source of the values: paper doi:10.1101/2022.02.11.480038.
